From the supplement of paper PMC10849652
This is one part of the list.

By UniProt entry, the sequences of proteins in these tests, tags left out. Where a name states a change or a piece, a line headed by the entry shows the natural chain unless it says otherwise.
UniProt O43670: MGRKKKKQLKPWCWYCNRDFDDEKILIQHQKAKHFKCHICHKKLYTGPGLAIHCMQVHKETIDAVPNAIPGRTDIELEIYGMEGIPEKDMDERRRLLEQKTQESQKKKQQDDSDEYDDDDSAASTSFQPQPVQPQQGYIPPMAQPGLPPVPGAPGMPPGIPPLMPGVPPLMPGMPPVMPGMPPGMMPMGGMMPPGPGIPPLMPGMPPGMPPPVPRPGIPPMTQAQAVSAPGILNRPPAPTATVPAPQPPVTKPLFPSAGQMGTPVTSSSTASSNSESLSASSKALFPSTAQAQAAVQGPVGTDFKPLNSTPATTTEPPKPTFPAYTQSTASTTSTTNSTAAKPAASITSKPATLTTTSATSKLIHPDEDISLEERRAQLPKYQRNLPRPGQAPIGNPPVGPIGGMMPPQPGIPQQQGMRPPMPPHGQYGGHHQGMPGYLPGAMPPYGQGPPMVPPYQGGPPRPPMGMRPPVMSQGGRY
UniProt Q969S3: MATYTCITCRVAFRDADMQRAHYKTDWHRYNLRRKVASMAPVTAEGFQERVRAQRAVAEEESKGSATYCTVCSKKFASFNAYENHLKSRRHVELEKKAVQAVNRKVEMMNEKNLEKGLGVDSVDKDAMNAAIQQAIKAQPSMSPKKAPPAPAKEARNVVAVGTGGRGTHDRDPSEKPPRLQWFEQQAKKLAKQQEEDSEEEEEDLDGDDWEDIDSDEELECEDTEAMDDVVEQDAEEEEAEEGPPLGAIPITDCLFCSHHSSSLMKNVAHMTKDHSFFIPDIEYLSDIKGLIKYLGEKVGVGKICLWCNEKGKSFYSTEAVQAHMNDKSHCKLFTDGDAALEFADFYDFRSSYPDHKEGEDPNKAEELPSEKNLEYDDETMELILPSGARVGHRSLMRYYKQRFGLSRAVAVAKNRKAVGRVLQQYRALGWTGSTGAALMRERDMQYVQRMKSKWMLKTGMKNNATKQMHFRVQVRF
UniProt Q9UL40: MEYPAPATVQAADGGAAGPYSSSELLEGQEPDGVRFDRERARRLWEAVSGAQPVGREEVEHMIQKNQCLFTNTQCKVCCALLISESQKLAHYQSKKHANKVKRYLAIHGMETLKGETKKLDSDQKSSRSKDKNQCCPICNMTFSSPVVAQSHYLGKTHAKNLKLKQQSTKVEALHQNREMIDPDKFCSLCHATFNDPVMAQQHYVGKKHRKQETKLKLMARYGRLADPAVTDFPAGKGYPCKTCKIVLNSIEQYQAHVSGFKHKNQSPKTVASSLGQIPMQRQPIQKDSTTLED
ZNF654, A0A1B0GWA0, UniProt A0A1B0GWA0, whole entry, looked up: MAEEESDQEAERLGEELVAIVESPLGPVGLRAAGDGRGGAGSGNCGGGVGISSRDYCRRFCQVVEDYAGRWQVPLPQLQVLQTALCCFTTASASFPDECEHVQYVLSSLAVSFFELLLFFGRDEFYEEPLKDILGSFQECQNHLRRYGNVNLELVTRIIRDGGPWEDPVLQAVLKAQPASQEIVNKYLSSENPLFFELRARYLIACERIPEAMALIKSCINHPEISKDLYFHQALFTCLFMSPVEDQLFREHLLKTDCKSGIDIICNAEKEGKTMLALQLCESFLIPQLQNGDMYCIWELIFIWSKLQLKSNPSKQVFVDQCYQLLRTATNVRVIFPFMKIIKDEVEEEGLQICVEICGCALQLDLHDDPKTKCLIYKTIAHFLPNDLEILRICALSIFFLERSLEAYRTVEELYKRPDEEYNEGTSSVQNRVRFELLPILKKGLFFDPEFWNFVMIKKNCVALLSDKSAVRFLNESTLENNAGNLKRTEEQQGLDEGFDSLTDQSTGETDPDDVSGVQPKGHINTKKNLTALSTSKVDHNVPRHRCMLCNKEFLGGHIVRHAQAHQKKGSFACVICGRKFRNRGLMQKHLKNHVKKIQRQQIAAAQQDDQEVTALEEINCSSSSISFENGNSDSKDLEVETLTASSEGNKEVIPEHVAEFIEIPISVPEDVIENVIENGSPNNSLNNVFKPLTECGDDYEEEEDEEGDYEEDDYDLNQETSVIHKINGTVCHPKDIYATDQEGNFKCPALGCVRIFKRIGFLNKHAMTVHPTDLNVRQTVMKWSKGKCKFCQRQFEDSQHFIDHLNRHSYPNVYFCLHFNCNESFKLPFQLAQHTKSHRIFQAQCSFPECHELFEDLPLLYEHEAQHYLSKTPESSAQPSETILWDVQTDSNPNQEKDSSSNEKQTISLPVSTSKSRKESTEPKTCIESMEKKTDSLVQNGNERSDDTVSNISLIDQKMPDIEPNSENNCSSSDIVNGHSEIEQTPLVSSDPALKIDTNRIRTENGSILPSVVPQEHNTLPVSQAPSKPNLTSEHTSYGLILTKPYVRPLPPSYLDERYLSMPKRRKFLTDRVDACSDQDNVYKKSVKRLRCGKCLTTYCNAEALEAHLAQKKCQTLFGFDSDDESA
UniProt Q7L945: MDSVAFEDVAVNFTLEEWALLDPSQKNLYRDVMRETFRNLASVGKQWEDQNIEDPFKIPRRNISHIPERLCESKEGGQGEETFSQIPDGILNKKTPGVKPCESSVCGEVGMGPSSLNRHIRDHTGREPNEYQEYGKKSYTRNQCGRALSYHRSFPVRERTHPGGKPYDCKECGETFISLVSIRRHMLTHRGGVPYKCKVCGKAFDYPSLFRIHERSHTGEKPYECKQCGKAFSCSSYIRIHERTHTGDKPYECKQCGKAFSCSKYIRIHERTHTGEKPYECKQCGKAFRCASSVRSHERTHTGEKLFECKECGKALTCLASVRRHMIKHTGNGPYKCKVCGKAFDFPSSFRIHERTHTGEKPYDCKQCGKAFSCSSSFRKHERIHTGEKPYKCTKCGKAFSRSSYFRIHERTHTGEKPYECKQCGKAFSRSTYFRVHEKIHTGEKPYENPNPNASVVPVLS
UniProt Q7L3S4: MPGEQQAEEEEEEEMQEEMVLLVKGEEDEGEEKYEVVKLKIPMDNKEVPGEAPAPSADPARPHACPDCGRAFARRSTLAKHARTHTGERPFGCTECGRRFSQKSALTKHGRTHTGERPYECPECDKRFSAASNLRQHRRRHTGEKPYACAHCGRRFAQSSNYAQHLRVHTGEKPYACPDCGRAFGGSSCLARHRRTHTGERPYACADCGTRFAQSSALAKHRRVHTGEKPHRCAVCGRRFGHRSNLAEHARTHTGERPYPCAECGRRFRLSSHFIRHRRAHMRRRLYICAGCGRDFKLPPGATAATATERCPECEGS
UniProt Q96PM9: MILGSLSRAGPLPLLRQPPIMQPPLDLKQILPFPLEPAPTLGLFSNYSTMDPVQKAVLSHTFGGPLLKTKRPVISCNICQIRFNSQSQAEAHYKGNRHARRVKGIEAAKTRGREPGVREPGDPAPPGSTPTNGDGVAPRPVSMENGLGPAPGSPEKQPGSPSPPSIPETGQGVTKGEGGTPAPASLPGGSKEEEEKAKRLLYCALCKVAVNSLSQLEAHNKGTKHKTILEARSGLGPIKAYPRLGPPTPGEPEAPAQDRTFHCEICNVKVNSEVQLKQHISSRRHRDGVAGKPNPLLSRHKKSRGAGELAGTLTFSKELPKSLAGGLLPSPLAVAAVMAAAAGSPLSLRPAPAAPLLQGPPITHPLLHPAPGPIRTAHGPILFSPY
UniProt Q19AV6: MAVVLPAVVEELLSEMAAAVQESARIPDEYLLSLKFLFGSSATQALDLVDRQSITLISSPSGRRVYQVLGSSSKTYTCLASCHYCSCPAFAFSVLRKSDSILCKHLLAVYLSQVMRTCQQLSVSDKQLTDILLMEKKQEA
UniProt Q8NF64: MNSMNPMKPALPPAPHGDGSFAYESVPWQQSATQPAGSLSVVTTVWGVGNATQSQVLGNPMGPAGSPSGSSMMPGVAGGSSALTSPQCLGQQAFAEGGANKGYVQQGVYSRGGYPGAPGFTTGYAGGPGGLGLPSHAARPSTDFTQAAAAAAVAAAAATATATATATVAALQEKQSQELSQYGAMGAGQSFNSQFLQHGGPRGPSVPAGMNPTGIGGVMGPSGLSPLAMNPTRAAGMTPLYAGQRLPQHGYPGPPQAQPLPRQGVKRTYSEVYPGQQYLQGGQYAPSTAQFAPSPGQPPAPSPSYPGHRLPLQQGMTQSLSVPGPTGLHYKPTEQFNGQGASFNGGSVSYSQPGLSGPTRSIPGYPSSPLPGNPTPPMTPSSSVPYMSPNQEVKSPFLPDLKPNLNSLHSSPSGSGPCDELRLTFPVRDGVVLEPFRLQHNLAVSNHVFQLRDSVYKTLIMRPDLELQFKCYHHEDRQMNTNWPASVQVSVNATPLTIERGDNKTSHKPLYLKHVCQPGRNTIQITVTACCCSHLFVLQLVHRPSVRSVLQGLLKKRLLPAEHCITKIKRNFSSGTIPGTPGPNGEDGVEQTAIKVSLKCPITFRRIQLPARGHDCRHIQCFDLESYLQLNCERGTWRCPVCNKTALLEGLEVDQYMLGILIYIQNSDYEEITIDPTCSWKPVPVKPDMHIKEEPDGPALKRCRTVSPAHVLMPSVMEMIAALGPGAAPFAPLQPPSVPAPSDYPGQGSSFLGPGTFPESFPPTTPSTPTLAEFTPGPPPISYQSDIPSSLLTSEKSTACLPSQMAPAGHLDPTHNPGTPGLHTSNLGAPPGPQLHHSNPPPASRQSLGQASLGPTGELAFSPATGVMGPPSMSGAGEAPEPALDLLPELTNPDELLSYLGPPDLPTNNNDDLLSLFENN
UniProt Q9UDW3: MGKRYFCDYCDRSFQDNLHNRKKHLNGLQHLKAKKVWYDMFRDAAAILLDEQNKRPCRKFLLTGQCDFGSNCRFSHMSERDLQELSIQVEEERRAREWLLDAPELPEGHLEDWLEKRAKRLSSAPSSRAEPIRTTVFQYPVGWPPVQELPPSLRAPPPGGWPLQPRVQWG
UniProt Q16587: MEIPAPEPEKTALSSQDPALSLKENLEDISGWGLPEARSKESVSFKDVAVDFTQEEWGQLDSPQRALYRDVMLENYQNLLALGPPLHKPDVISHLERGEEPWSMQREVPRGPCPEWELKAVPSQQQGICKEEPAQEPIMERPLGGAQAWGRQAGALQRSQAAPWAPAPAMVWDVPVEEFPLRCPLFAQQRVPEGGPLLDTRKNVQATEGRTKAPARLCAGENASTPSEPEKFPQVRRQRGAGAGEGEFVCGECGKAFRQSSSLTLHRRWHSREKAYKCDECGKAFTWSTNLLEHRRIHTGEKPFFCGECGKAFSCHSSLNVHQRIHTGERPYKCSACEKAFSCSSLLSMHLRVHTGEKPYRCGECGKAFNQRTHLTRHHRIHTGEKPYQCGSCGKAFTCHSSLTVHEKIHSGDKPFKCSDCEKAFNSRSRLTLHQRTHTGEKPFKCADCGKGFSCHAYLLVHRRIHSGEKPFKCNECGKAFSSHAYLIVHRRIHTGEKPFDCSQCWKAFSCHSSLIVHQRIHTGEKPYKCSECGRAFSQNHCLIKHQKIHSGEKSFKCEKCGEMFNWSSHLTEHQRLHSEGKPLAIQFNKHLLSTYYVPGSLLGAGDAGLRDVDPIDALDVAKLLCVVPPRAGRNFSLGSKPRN
UniProt Q86YH2: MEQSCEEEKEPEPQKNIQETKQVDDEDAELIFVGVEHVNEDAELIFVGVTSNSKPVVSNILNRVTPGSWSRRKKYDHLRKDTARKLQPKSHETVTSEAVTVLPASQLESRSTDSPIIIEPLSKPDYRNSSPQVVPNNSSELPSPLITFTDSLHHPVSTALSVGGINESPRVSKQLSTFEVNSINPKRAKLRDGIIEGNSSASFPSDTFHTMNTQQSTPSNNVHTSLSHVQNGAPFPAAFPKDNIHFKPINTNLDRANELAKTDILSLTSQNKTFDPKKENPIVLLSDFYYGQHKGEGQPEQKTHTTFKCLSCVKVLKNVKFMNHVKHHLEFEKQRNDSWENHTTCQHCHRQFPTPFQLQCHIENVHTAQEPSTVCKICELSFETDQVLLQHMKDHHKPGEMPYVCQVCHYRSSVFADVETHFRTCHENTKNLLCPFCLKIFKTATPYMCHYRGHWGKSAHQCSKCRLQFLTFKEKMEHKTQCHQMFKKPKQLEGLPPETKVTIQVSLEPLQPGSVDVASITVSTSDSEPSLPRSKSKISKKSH
UniProt Q96E35: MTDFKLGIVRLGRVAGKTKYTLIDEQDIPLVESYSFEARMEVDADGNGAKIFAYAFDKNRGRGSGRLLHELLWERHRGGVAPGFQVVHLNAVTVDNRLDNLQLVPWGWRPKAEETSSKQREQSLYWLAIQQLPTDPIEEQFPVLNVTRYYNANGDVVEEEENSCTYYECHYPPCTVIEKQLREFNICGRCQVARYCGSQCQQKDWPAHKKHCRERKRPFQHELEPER
UniProt Q5VV52: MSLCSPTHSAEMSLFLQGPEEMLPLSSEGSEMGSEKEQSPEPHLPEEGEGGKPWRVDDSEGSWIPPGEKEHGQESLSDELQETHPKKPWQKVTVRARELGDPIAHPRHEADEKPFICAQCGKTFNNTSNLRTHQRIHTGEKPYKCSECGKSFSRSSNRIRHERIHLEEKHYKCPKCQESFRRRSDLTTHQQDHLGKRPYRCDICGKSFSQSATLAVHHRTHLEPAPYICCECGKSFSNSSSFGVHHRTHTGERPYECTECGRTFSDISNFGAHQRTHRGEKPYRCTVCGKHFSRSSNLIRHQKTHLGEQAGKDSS

Assays:
Experiment in all cases: log2 fold change, soluble protein after heating vs DMSO (PISA); higher = thermal stabilisation; K562 lysate, 10 uM; active = over 0.2 and 3.5 SD of the protein, either way, in both replicates (recomputed)
[1] = compound: C#Cc1cccc(Nc2ncnc3cc(OCCOC)c(OCCOC)cc23)c1 [erlotinib]
Outline: (§1)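 K562 pellets were dounce-homogenised in PBS pH 7.4 with 1 mM MgCl2, and the crude extract at 1 mg/mL protein was treated with 10 μM compound for 30 min. Aliquots were heated for 3 min across 48°C-58°C, pooled, and brought to 0.5% NP-40 at 4°C; soluble protein was the supernatant after 21,000xg for 90 min. Soluble protein was quantified by TMTpro 16plex LC-MS/MS with channel sums equalised, and reported as log2 fold change in thermal stability against DMSO controls, with values from duplicates.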

[2] = compound: C/C(=N\NC(=O)C1=CC(=CC=C1)S(=O)(=O)N2CCOCC2)/C3=C(C=CC(=C3)Cl)O
Outline: as §1

[3] = compound: C1=CC(=CC=C1C2=NC3=C(N2)C=C(C=C3)C(=O)N)OC4=CC=C(C=C4)Cl
Outline: as §1

[4] = compound: C1=CC2=C(C=CC(=C2)/C=C\3/C(=O)NC(=NCC4=CC=CS4)S3)N=C1
Outline: as §1

[5] = compound: C1=CC2=NC=CN=C2C=C1/C=C/3\C(=O)NC(=O)S3
Outline: as §1

[6] = compound: C1=CC=C(C=C1)C2=NC(=C(N2)C3=CC=NC=C3)C4=CC(=C(C=C4)Cl)O
Outline: as §1

[7] = compound: C1=CC=C2C(=C1)C3=NNC4=CC=CC(=C43)C2=O
Outline: as §1

[8] = compound: C1CCN(C1)C(=O)NC2=CC=CC(=C2)NC3=NC=C(C(=N3)NCCC4=CN=CN4)Br
Outline: as §1

[9] = compound: C1CN(CCC1(CC2=CC=C(C=C2)Cl)N)C3=NC=NC4=C3C=CN4
Outline: as §1

[10] = compound: C1COCCN1CCN2C3=CC=CC=C3N=C2NC(=O)C4=CC(=CC=C4)[N+](=O)[O-] [IRAK-1-4 Inhibitor I]
Outline: as §1

Measured: log2 fold change

ZNF207 isoform 2 (UniProt O43670)
inactive: [1] 0.02 | [2] -0.041 | [3] 0.084 | [4] 0.101 | [5] -0.036 | [6] -0.019 | [7] -0.129 | [8] -0.069 | [9] 0.047 | [10] 0.038

ZMYM3 (UniProt Q14202)
inactive: [1] 0.031 | [2] -0.011 | [3] -0.051 | [4] -0.038 | [5] -0.001 | [6] -0.003 | [7] -0.015 | [8] -0.026 | [9] 0 | [10] -0.001

ZNF512 (UniProt Q96ME7)
inactive: [1] 0.014 | [2] -0.063 | [3] 0 | [4] -0.137 | [5] -0.051 | [6] 0.057 | [7] 0.134 | [8] 0.032 | [9] 0.011 | [10] 0.014

ZMIZ1 (UniProt Q9ULJ6)
inactive: [1] -0.014 | [2] 0.052 | [3] 0.075 | [4] -0.042 | [5] -0.006 | [6] 0.008 | [7] -0.032 | [8] 0 | [9] -0.021 | [10] -0.003

ZNF622 (UniProt Q969S3)
inactive: [1] -0.007 | [2] 0.025 | [3] -0.022 | [4] -0.015 | [5] -0.013 | [6] 0.003 | [7] -0.005 | [8] -0.007 | [9] -0.024 | [10] -0.006

ZNF845 (UniProt Q96IR2)
inactive: [1] -0.033 | [2] -0.145 | [3] 0.102 | [4] 0.02 | [5] -0.09 | [6] 0.047 | [7] -0.123 | [10] -0.044

ZMYM5 (UniProt Q9UJ78)
inactive: [1] 0.005 | [2] 0.065 | [3] 0.072 | [4] 0 | [7] -0.09

ZNF687 (UniProt Q8N1G0)
inactive: [1] 0.049 | [3] 0.016 | [6] -0.054 | [8] 0.065 | [9] -0.129 | [10] 0.051

ZNF669 (UniProt Q96BR6)
inactive: [1] -0.144 | [3] -0.033 | [5] -0.003 | [6] 0.148 | [10] 0.015

ZNF346 (UniProt Q9UL40)
inactive: [1] -0.057 | [3] -0.009 | [5] -0.035 | [6] -0.014 | [8] 0.016 | [9] -0.002 | [10] 0.015

ZNF93 (UniProt P35789)
inactive: [1] 0.045 | [2] 0.083 | [3] -0.197 | [4] 0.071 | [6] 0.017 | [7] 0.037 | [8] -0.034 | [9] -0.025 | [10] -0.025

ZNF561-AS1 (UniProt K7EIQ3)
inactive: [1] -0.411 | [3] -0.124 | [5] -0.112 | [6] -0.252 | [10] -0.052

ZNF800 (UniProt Q2TB10)
inactive: [1] -0.012 | [3] 0.043

ZNF654, A0A1B0GWA0
inactive: [1] 0.036 | [3] -0.101 | [5] -0.148 | [6] -0.043 | [10] -0.062

ZNF627 (UniProt Q7L945)
inactive: [1] -0.02 | [3] -0.082 | [5] -0.027

ZNRD1 (UniProt Q9P1U0)
inactive: [1] -0.055 | [3] -0.09

ZNF771 (UniProt Q7L3S4)
inactive: [1] 0.025 | [3] 0.061 | [5] -0.127

ZNF574 isoform 2 (UniProt Q6ZN55)
inactive: [1] -0.122 | [3] -0.016 | [5] 0.03 | [6] -0.049 | [8] -0.053 | [9] -0.01 | [10] -0.058

ZNF385A (UniProt Q96PM9)
inactive: [1] -0.04 | [3] -0.018 | [5] 0.033 | [6] 0.039 | [10] -0.059

ZSWIM7 (UniProt Q19AV6)
inactive: [1] 0.018 | [2] -0.024 | [3] 0.026 | [4] 0.04 | [6] 0.217 | [7] -0.124 | [10] -0.018

ZNF76 (UniProt P36508)
inactive: [1] -0.009 | [2] -0.058 | [3] -0.051 | [4] -0.135 | [7] 0.074

ZNF525 (UniProt J3KR51)
inactive: [1] 0.131 | [2] 0.082 | [3] 0.139 | [4] -0.066 | [5] -0.105 | [7] -0.09

ZSCAN25 (UniProt Q6NSZ9)
inactive: [1] 0.012 | [3] -0.004

ZNF358 (UniProt Q9NW07)
inactive: [1] -0.078 | [3] -0.075

ZKSCAN4 (UniProt Q969J2)
inactive: [1] 0.048 | [2] 0.08 | [3] -0.092 | [4] 0.189 | [6] 0.165 | [7] 0.055 | [10] -0.023

ZNF592 (UniProt Q92610)
inactive: [1] 0.119 | [3] 0.065 | [5] 0.009 | [6] 0.024 | [8] -0.07 | [9] 0.094 | [10] 0.032

ZNF639 (UniProt Q9UID6)
inactive: [1] -0.088 | [2] 0.052 | [3] 0.106 | [4] 0.001 | [6] -0.015 | [7] -0.104 | [10] 0.012

ZNF852 (UniProt Q6ZMS4)
inactive: [1] 0.035 | [2] -0.318 | [3] 0.07 | [4] -0.101 | [7] 0.14

ZNF326 (UniProt Q5BKZ1)
inactive: [1] -0.087 | [2] -0.016 | [3] 0.124 | [4] 0.113 | [6] 0.031 | [7] -0.099 | [8] 0.009 | [9] 0.038 | [10] 0.01

ZMIZ2 (UniProt Q8NF64)
inactive: [1] -0.025 | [2] -0.013 | [3] 0.108 | [4] -0.02 | [5] -0.075 | [7] -0.041 | [8] -0.047 | [9] 0.008

ZMAT5 (UniProt Q9UDW3)
inactive: [1] -0.099 | [3] -0.272

ZNHIT1 (UniProt O43257)
inactive: [1] -0.021 | [3] -0.025 | [5] -0.124 | [6] -0.078 | [8] 0.139 | [9] 0.159 | [10] 0.024

ZNF670 (UniProt Q9BS34)
inactive: [1] -0.007 | [3] 0.02

ZYG11A (UniProt Q6WRX3)
inactive: [1] -0.125 | [3] -0.059 | [5] -0.061 | [6] -0.04 | [10] -0.004

ZNF74 isoform 5 (UniProt Q16587)
inactive: [1] -0.173 | [3] 0.108 | [5] -0.045 | [6] -0.044 | [8] 0.355 | [9] -0.048 | [10] -0.057

ZKSCAN8 (UniProt Q15776)
inactive: [1] -0.005 | [2] -0.418 | [3] -0.148 | [4] 0.004 | [6] -0.001 | [7] -0.04 | [8] 0.031 | [9] 0.006 | [10] 0.077

ZNF280B (UniProt Q86YH2)
inactive: [1] 0.124 | [2] -0.033 | [3] 0.122 | [4] 0.001 | [5] 0.083 | [7] 0.008

ZMYND19 (UniProt Q96E35)
inactive: [1] -0.029 | [3] -0.03

ZNF668 isoform 2 (UniProt Q96K58)
inactive: [1] -0.026 | [3] -0.025

Random excerpt: three entries already listed
ZKSCAN8 (UniProt Q15776)
inactive: [1] -0.005 | [2] -0.418 | [3] -0.148 | [4] 0.004 | [6] -0.001 | [7] -0.04 | [8] 0.031 | [9] 0.006 | [10] 0.077

ZYG11A (UniProt Q6WRX3)
inactive: [1] -0.125 | [3] -0.059 | [5] -0.061 | [6] -0.04 | [10] -0.004

ZNF668 isoform 2 (UniProt Q96K58)
inactive: [1] -0.026 | [3] -0.025

(continued)

ZNF324 (UniProt O75467)
inactive: [6] -0.048 | [10] -0.012

ZNF101 (UniProt Q8IZC7)
inactive: [1] -0.515 | [3] -0.254 | [6] -0.141 | [10] -0.066

ZNF48 (UniProt Q96MX3)
inactive: [8] 0.114 | [9] -0.035

ZNF691 (UniProt Q5VV52)
inactive: [2] -0.122 | [4] 0.022 | [5] -0.099 | [6] -0.017 | [7] 0.072 | [8] -0.002 | [9] -0.059 | [10] 0.104
